Paper PMC9299759, “FBXW24 controls female meiotic prophase progression by regulating SYCP3 ubiquitination” (Clinical and Translational Medicine, 2022)
No constants are given. Whether binding was seen depends on the method and setting. For some of these results: Binding seen in cells or lysates may run through a third protein. Some binding calls cover weakened binding; strength is not graded here.

The chains behind the UniProt entries cited, without tags or fusion partners.
UniProt Q3UIR3: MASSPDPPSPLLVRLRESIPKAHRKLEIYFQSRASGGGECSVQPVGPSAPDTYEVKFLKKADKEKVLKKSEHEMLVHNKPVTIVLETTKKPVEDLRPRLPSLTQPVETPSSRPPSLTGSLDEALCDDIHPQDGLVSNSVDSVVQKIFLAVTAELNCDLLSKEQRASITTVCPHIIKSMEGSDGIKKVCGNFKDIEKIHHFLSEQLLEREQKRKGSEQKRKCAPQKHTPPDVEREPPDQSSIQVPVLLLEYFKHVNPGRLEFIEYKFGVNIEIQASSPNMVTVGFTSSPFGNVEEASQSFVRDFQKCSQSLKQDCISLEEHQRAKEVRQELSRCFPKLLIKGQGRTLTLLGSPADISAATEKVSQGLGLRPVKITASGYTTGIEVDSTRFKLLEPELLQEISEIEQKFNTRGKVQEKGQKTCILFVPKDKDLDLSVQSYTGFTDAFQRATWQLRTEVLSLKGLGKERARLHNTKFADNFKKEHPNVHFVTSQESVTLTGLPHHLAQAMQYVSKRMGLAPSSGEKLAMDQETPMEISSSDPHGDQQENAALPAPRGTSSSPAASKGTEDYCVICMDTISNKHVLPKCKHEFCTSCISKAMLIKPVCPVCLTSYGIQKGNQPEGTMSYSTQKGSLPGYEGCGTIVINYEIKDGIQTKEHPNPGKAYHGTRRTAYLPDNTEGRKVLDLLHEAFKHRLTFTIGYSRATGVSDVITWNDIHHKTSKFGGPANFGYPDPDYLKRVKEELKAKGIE

Key:
[1] = biological target: T1, FBXW24 as in the co‐IP with STAT1 and DTX3L (Figure 8J, M) (mouse) (UniProt E9PXM9); test: co-IP; co-IP and western blot (Figure 8J, M); sample and precipitating antibody not told
T1 sequence: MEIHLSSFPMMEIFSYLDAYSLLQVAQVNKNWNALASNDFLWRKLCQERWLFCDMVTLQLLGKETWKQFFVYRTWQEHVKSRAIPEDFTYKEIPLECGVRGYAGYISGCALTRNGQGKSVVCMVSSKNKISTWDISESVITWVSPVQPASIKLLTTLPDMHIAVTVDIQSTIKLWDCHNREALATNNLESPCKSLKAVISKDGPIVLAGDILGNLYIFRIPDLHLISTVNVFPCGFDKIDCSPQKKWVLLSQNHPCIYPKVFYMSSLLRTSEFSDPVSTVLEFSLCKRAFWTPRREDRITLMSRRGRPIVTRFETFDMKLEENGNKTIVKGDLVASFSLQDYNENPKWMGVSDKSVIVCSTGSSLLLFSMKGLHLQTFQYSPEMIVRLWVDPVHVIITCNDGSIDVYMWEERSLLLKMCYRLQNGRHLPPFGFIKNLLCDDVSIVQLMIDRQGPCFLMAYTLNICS

[2] = biological target: T2, SYCP3, yeast two-hybrid construct (mouse) (UniProt P70281); test: two-hybrid; yeast two-hybrid (Y2H); vectors, bait and prey not told
T2 sequence: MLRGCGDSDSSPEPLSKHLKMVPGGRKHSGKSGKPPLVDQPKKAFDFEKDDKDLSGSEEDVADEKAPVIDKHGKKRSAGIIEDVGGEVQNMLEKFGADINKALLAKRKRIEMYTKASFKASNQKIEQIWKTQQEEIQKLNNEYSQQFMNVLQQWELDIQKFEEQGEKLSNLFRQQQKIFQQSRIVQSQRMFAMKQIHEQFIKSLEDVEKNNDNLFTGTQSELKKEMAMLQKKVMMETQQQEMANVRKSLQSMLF

Question: How did the binding [1] turn out when DTX3L (from UniProt Q3UIR3 1-748) was run?
Answer: The binding was “binds”.

B1: FBXW24 (F‐box and WD‐40 domain protein 24), yeast two-hybrid construct (protein, UniProt E9PXM9 1-466)
chain: MEIHLSSFPMMEIFSYLDAYSLLQVAQVNKNWNALASNDFLWRKLCQERWLFCDMVTLQLLGKETWKQFFVYRTWQEHVKSRAIPEDFTYKEIPLECGVRGYAGYISGCALTRNGQGKSVVCMVSSKNKISTWDISESVITWVSPVQPASIKLLTTLPDMHIAVTVDIQSTIKLWDCHNREALATNNLESPCKSLKAVISKDGPIVLAGDILGNLYIFRIPDLHLISTVNVFPCGFDKIDCSPQKKWVLLSQNHPCIYPKVFYMSSLLRTSEFSDPVSTVLEFSLCKRAFWTPRREDRITLMSRRGRPIVTRFETFDMKLEENGNKTIVKGDLVASFSLQDYNENPKWMGVSDKSVIVCSTGSSLLLFSMKGLHLQTFQYSPEMIVRLWVDPVHVIITCNDGSIDVYMWEERSLLLKMCYRLQNGRHLPPFGFIKNLLCDDVSIVQLMIDRQGPCFLMAYTLNICS
Question: B1 was tested. Which binding [2] did it give?
Answer: Its binding is “binds”.

B2: FBXW24‐2 (100–191 AA), yeast two-hybrid construct (domain or fragment, UniProt E9PXM9 100-191)
chain: RGYAGYISGCALTRNGQGKSVVCMVSSKNKISTWDISESVITWVSPVQPASIKLLTTLPDMHIAVTVDIQSTIKLWDCHNREALATNNLESP
Question: How did the binding [2] turn out when B2 was run?
Answer: The binding was “binds”.

B3: FBXW24‐4 (301–466 AA), yeast two-hybrid construct (domain or fragment, UniProt E9PXM9 301-466)
chain: LMSRRGRPIVTRFETFDMKLEENGNKTIVKGDLVASFSLQDYNENPKWMGVSDKSVIVCSTGSSLLLFSMKGLHLQTFQYSPEMIVRLWVDPVHVIITCNDGSIDVYMWEERSLLLKMCYRLQNGRHLPPFGFIKNLLCDDVSIVQLMIDRQGPCFLMAYTLNICS
Question: Which binding [2] does the source give for B3 here?
Answer: Its binding is “binds”.
